Reference: patent publication US4018753A (Shionogi & Co., Ltd., priority 1974, dated 1977)
* marks the point of attachment. Cbz = O=C(OCc1ccccc1)*; Boc = CC(C)(C)OC(=O)*

Test: general procedure: solution-phase peptide synthesis; N-hydroxysuccinimide ester method; N,N'-dicyclohexylcarbodiimide with N-hydroxys
Details: coupling step

Substance | step yield [%]
Cbz-K(Boc)PVGK(Boc)K(Boc)K(Boc)K(Boc)P-NH2 | 90
Cbz-K(Boc)K(Boc)K(Boc)P-NH2 | 96
